Consider one molecule from patent publication US20040120923A1.

No constants are given. Whether binding was seen depends on the method and setting. Some entries that bind do so weakly or less than the wild type. Where a sequence is shown, tags or fusion partners need not be part of it.

Experiment [1] deals with T1, IL-18Rα: D3 (third extracellular domain of IL-18Rα, his6 tagged, from E. coli) (UniProt Q13478).
T1 sequence (looked up): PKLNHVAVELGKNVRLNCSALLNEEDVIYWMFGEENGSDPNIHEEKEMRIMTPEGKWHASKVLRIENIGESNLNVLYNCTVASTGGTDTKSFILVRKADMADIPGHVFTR
Put plainly: BS3 chemical cross-linking, reducing SDS-PAGE, Western blot with anti-IL-18Rα mAb (legend of FIG. 3A).

Experiment [2] concerns the target T1, IL-18Rα: D3 (third extracellular domain of IL-18Rα, his6 tagged, from E. coli). Put plainly: BS3 chemical cross-linking, SDS-PAGE, Western blot with anti-IL-18Rα mAb. (In general: A western blot detects proteins with antibodies after separation by electrophoresis.)

B1: pro IL-1F7b (full-length IL-1F7b) (ligand, human, UniProt Q9NZH6 1-218, looked up)
chain: MSFVGENSGVKMGSEDWEKDEPQCCLEDPAGSPLEPGPSLPTMNFVHTSPKVKNLNPKKFSIHDQDHKVLVLDSGNLIAVPDKNYIRPEIFFALASSLSSASAEKGSPILLGVSKGEFCLYCDKDKGQSHPSLQLKKEKLMKLAAQKESARRPFIFYRAQVGSWNMLESAAHPGWFICTSCNCNEPVGVTDKFENRKHIEFSFQPVCKAEMSPSEVSD
As for B1, the binding result in experiment [1] and in experiment [2] was “binds” each time.
